{"source": "paper PMC9577226", "about": "“In vitro selection and optimization of high-affinity aptamer for milk allergen α-lactalbumin and its application in dual-mode detection”", "target": "T1, alpha-lactalbumin (α-La) (Bos taurus (bovine milk)) (UniProt P00711)", "T1 sequence (looked up, limits assumed)": "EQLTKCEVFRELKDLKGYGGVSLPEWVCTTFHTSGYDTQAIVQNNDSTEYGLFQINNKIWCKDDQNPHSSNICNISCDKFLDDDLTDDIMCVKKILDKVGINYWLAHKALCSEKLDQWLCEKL", "experiment": "fluorescence graphene oxide (GO) assay", "conditions": "50 mM Tris-HCl, 5 mM KCl, 100 mM NaCl, 1 mM MgCl2, pH 7.4; 100 nM FAM-aptamer, 0-400 ug/ml α-La, 1 h in the dark, then GO 15 min; commercial protein; label: 5'-FAM; single-stranded DNA", "note": "A weaker result is weaker than the reference pair of the same experiment. Where a protein sequence is shown, tags need not be part of it.", "data": [{"sequence": "AGTAGCTCAGAGGTCAGATGGTGATGCGAA [MLA-1t]", "values": [{"measurement": "binding result", "result": "binds more weakly"}]}]}
